The values that follow come from publication PMC3877299.

By UniProt entry, the sequences of proteins in these tests, tags left out. Residues count along the entry.
UniProt Q9QXX0, residues 34-1218: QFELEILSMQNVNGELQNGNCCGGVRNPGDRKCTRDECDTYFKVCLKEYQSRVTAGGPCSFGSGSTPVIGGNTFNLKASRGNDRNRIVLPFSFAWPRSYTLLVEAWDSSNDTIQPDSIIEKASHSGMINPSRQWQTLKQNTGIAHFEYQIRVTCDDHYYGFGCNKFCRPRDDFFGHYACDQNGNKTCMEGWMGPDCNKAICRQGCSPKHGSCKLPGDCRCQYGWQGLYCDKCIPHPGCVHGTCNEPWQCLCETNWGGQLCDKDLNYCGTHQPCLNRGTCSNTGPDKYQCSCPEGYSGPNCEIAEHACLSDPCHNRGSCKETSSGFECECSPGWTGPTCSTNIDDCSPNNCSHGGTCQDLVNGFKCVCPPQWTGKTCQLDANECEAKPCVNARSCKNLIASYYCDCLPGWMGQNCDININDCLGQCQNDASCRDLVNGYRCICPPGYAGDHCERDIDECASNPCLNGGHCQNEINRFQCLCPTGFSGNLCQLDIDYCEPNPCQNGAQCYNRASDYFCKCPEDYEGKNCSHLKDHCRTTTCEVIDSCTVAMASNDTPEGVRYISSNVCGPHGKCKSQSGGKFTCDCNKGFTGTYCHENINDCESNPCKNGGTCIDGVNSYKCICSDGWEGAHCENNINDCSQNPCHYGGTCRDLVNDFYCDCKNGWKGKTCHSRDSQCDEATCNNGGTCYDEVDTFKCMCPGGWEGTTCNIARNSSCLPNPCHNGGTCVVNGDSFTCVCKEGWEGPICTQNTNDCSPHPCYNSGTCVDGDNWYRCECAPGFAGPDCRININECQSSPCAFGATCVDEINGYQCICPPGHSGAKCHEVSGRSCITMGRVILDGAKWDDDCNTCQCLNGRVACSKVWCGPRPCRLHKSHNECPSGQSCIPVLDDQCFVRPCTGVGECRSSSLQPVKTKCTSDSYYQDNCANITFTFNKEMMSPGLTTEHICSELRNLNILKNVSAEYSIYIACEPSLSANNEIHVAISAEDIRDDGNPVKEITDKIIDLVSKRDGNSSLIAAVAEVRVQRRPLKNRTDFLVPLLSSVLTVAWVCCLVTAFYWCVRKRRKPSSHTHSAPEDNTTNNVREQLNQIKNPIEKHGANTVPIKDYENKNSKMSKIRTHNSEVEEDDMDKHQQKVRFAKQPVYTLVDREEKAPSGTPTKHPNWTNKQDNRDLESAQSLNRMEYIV

This assay has as its target Jag1 (mouse (endogenous in C57Bl/6J liver)) (UniProt Q9QXX0). Nature of the assay: co-IP; Jag1 antibody (sc-6011) covalently coupled to AminoLink resin; whole liver lysate of C57Bl/6J mice at 2 weeks of age (PBS, 5 mM EDTA, 1 mM CaCl2, 0.02% sodium azide, protease and phosphatase inhibitors), pre-cleared; binding overnight at 4°C; western blot with Ddr1 antibody.

These are yes or no findings as the source states them, for the method shown. Binding seen in cells or lysates may run through a third protein. Some entries that bind do so weakly or less than the wild type.

B1: Ddr1 (receptor, UniProt Q03146 20-911)
chain: DADMKGHFDPAKCRYALGMQDRTIPDSDISVSSSWSDSTAARHSRLESSDGDGAWCPAGPVFPKEEEYLQVDLRRLHLVALVGTQGRHAGGLGKEFSRSYRLRYSRDGRRWMDWKDRWGQEVISGNEDPGGVVLKDLGPPMVARLVRFYPRADRVMSVCLRVELYGCLWRDGLLSYTAPVGQTMQLSEVMVHLNDSTYDGYTAGGLQYGGLGQLADGVVGLDDFRQSQELRVWPGYDYVGWSNQSFPTGYVEMEFEFDRLRTFQTMQVHCNNMHTLGARLPGGVECRFKRGPAMAWEGEPVRHALGGSLGDPRARAISVPLGGHVGRFLQCRFLFAGPWLLFSEISFISDVVNDSSDTFPPAPWWPPGPPPTNFSSLELEPRGQQPVAKAEGSPTAILIGCLVAIILLLLLIIALMLWRLHWRRLLSKAERRVLEEELTVHLSVPGDTILINNRPGPREPPPYQEPRPRGTPPHSAPCVPNGSALLLSNPAYRLLLATYARPPRGPGPPTPAWAKPTNTQACSGDYMEPEKPGAPLLPPPPQNSVPHYAEADIVTLQGVTGGNTYAVPALPPGAVGDGPPRVDFPRSRLRFKEKLGEGQFGEVHLCEVEDPQDLVSSDFPISVHKGHPLLVAVKILRPDATKNARNDFLKEVKIMSRLKDPNIIRLLGVCVQDDPLCMITDYMENGDLNQFLSARQLENKATQGLSGDTESDQGPTISYPMLLHVGAQIASGMRYLATLNFVHRDLATRNCLVGENFTIKIADFGMSRNLYAGDYYRVQGRAVLPIRWMAWECILMGKFTTASDVWAFGVTLWEVLMLCRSQPFGQLTDEQVIENAGEFFRDQGRQVYLSRPPACPQTLYELMLRCWSREPEQRPPFAQLHRFLADDALNTV
As for B1, the binding result was “binds”.
